# Source: paper doi:10.1101/2024.06.28.601102
# Protein sequences, listed by entry. Tags and fused reporters are not part of them.
# UniProt O00425: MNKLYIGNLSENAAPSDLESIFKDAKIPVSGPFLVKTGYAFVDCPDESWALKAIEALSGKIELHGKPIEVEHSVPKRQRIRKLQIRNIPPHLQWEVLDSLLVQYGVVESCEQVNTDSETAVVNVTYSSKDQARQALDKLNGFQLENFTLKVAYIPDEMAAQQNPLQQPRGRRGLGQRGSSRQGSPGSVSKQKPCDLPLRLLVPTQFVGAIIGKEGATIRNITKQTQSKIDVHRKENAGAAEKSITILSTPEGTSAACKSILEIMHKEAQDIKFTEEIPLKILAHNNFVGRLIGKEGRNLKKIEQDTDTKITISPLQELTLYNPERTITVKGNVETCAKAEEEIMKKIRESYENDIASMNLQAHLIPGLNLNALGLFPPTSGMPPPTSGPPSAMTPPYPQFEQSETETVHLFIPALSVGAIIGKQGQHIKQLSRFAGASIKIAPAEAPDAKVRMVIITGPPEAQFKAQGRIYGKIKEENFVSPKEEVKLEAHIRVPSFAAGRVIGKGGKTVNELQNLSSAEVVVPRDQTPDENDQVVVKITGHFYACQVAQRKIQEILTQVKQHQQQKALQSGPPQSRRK
# Results are given in words; binding and its absence hold for the method and conditions named. In cells and extracts the contact can be indirect. Some binding calls cover weakened binding; strength is not graded here.
# T1: F-Box Protein 32 (FBXO32) (human (endogenous in HGC-27)) (UniProt Q969P5)
# T1 sequence: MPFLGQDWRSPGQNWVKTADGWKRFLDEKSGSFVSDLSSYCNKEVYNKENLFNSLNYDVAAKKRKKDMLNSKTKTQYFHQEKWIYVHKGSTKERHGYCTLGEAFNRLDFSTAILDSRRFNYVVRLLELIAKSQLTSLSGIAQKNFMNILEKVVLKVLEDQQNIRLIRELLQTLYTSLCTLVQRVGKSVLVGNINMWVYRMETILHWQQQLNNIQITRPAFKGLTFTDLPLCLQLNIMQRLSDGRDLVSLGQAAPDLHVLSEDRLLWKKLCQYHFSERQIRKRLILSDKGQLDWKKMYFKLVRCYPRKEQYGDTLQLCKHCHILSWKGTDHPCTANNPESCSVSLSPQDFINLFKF
# How the values were obtained:
# [1] = target: T1, F-Box Protein 32 (FBXO32) (human (endogenous in HGC-27)); assay: co-IP
# [2] = target: Insulin like growth factor II mRNA binding protein 3 (IGF2BP3) (human (endogenous in HGC-27)) (UniProt O00425); assay: co-IP
binding [1],binding [2],Molecule
binds,,Insulin like growth factor II mRNA binding protein 3 (IGF2BP3) (from UniProt O00425 1-579)
,binds,"F-Box Protein 32 (FBXO32) (protein, UniProt Q969P5 1-355) MPFLGQDWRSPGQNWVKTADGWKRFLDEKSGSFVSDLSSYCNKEVYNKENLFNSLNYDVAAKKRKKDMLNSKTKTQYFHQEKWIYVHKGSTKERHGYCTLGEAFNRLDFSTAILDSRRFNYVVRLLELIAKSQLTSLSGIAQKNFMNILEKVVLKVLEDQQNIRLIRELLQTLYTSLCTLVQRVGKSVLVGNINMWVYRMETILHWQQQLNNIQITRPAFKGLTFTDLPLCLQLNIMQRLSDGRDLVSLGQAAPDLHVLSEDRLLWKKLCQYHFSERQIRKRLILSDKGQLDWKKMYFKLVRCYPRKEQYGDTLQLCKHCHILSWKGTDHPCTANNPESCSVSLSPQDFINLFKF"
